Screening data, single-dose tests

Sequences of proteins named here, by UniProt entry; tags and fusion partners are left off. Residues count along the entry.
UniProt I6X8D2, whole entry: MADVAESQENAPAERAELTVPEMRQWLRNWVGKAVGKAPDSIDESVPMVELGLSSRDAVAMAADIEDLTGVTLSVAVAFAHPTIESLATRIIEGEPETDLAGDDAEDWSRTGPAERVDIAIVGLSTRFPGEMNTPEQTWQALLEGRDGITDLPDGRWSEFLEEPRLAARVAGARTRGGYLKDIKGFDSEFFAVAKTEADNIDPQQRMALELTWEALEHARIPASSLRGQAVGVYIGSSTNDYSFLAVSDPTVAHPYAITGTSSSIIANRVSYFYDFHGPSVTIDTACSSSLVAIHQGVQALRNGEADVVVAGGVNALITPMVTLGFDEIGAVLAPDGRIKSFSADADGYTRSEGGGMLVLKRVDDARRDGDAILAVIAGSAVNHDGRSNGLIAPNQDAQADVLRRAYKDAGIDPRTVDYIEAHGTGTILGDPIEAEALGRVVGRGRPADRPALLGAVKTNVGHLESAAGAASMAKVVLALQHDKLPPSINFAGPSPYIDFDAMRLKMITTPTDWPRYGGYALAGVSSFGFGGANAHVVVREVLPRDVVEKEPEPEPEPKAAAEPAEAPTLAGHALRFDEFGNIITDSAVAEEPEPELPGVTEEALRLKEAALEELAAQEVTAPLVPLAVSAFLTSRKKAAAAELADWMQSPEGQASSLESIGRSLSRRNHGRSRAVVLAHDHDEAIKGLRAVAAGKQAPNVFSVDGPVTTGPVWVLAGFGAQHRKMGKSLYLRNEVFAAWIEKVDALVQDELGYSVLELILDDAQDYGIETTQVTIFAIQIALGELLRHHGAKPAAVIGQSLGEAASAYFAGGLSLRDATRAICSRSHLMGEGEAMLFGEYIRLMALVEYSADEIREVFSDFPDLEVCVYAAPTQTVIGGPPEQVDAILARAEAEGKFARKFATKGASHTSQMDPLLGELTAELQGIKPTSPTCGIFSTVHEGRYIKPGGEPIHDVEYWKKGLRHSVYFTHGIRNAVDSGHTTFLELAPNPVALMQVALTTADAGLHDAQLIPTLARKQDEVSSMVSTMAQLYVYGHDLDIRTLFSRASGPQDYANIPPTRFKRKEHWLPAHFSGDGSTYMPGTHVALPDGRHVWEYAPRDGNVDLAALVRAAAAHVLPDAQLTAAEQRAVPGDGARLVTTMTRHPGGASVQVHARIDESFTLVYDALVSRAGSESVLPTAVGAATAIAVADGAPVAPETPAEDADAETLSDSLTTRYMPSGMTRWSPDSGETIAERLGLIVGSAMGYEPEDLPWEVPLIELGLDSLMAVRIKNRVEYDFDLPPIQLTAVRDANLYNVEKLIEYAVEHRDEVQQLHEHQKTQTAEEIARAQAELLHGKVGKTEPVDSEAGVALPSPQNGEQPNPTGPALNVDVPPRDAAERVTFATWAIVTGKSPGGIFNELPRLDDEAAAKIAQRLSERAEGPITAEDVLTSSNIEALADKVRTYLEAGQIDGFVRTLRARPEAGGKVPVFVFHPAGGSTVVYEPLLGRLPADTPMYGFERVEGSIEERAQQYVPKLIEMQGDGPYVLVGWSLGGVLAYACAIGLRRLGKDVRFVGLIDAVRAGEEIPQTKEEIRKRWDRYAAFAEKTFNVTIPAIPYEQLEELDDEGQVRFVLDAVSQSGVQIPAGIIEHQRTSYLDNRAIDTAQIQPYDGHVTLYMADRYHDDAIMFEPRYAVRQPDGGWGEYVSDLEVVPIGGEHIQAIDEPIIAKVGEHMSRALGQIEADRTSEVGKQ
UniProt Q8IDJ8, 1-583: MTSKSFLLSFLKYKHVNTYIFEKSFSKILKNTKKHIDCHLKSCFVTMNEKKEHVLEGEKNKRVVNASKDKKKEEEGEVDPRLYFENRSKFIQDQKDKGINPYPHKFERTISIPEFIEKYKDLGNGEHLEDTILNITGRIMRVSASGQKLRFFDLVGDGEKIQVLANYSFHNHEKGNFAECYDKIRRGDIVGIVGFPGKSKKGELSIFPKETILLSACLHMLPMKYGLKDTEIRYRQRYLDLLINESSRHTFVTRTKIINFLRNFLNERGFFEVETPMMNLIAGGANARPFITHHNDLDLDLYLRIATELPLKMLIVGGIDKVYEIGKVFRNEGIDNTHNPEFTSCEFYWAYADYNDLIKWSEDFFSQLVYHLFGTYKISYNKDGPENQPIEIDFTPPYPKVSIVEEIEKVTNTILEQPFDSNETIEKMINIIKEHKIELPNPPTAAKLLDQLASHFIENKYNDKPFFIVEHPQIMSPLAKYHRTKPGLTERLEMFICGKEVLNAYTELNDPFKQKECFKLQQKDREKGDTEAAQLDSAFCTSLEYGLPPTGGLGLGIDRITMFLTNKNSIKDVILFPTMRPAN
UniProt A4I591, 1-473: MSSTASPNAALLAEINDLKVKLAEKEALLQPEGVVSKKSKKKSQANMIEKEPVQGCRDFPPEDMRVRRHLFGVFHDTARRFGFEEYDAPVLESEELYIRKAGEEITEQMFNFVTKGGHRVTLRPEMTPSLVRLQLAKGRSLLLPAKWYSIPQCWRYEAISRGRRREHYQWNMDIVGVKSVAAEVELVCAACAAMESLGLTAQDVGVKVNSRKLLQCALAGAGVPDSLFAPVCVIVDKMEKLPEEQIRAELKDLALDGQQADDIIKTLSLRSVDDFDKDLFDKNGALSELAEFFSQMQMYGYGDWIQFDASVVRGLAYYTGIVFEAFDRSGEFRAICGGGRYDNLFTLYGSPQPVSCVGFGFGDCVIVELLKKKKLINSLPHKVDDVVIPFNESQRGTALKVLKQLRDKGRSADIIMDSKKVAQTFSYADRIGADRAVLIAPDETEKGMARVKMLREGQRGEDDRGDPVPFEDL
UniProt P9WFT3, whole entry: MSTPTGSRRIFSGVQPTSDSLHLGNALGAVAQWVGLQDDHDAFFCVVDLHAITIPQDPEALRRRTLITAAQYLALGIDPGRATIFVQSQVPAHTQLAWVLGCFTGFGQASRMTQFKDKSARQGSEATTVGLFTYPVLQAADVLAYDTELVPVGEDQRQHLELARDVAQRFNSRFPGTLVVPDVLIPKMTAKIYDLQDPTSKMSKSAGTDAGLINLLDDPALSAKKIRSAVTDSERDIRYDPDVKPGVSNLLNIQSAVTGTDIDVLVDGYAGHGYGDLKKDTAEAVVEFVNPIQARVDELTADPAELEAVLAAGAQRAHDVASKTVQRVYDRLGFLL

Measurements from “University of Dundee, Small-Polar-MMV Screening Library” (2021), ChEMBL document CHEMBL3988442.

Pks13 thioesterase: 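Enzyme assay of the thioesterase domain of polyketide synthase 13; the read-out is not stated. Target: Polyketide synthase Pks13, Mycobacterium tuberculosis (UniProt I6X8D2). Concentration: 30 µM. The record gives no direction; the compounds picked for IC50 retests had high values, so higher reads as stronger inhibition. Size under these conditions: about 67,000 compounds, about 300 of them at 50% or above in at least one test.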
PfKRS1: 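Lysine-tRNA ligase, Plasmodium falciparum 3D7 (UniProt Q8IDJ8). Enzyme assay of the cytosolic lysyl-tRNA synthetase in 384-well plates, read by luminescence. Tested at 30 µM. Direction is inferred from only a few compounds that gave an IC50; most scored high, so higher reads as stronger inhibition. About 69,000 compounds were tested under these conditions; 0.071% (about 49) showed 50% or more at least once.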
LiHisRS: 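Enzyme assay of histidyl-tRNA synthetase; the read-out is not stated. Target: Histidine-tRNA ligase, Leishmania infantum (UniProt A4I591). Tested at 30 µM. Higher reads as stronger inhibition (inferred: compounds with an IC50 in retests scored well above the rest). The assay is labelled LdHisRS but filed under L. infantum. About 69,000 compounds were tested under these conditions; 0.6% (about 410) showed 50% or more at least once.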
MtTrpRS: 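Enzyme assay of tryptophanyl-tRNA synthetase; the read-out is not stated. Target: Tryptophan-tRNA ligase, Mycobacterium tuberculosis (UniProt P9WFT3). Compounds at 10 µM. Direction is not recorded; retested compounds ran higher, which suggests that high means inhibition. Size under these conditions: about 65,000 compounds, about 64 of them at 50% or above in at least one test.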

Results are given as percent effect. How 0% and 100% were set is not recorded. Most values in the screen are low, and negative values occur. The compounds are a random part of those screened.

Compound: CC(C)(N)c1cn(C2CCN(c3ncccc3Cl)CC2)nn1
Pks13 thioesterase: -8.679
PfKRS1: -2.43
LiHisRS: 2.128
MtTrpRS: 2.348

Compound: CCCc1nc(NCCCn2ccnc2)c2c(n1)c(C)nn2CC
Pks13 thioesterase: -122.8
PfKRS1: 6.08
LiHisRS: 15.52
MtTrpRS: -1.166

Compound: Cc1cncc(C(=O)N2C[C@@H](C(=O)O)[C@H](C(C)C)C2)c1
Pks13 thioesterase: -1.413
PfKRS1: -5.77
LiHisRS: 16.33
MtTrpRS: 3.818

Compound: CN(C)CCCNC(=O)c1ccccc1NC(=O)c1cc(Cl)ccc1Cl
Pks13 thioesterase: -13.53
PfKRS1: 6.408
LiHisRS: 13.04
MtTrpRS: 0.6431

Compound: Cc1ncsc1C(=O)N1CCC(Nc2cccnn2)CC1
Pks13 thioesterase: 6.602
PfKRS1: 1.044
LiHisRS: 3.774
MtTrpRS: -3.957

Compound: CCN(CC)S(=O)(=O)c1cccc(C(=O)N(C)Cc2ccsc2)c1
Pks13 thioesterase: -62.39
PfKRS1: -0.8299
LiHisRS: 11.54
MtTrpRS: 6.091

Compound: CCOc1ccc2oc(-c3cnn(C)c3C)c(O)c(=O)c2c1
Pks13 thioesterase: -14.94
PfKRS1: 2.309
LiHisRS: 9.735
MtTrpRS: -3.351

Compound: CC(C)(C)CC(=O)Nc1ccccc1SCC(N)=O
Pks13 thioesterase: -9.4
PfKRS1: 3.683
LiHisRS: 9.574
MtTrpRS: 0.4122

Compound: c1cncc(C2CC3(CCN(c4cnccn4)CC3)c3ccccc32)c1 (stereo not given)
Pks13 thioesterase: 4.858
PfKRS1: -0.08181
LiHisRS: 30.77
MtTrpRS: -0.8721

Compound: Cc1cnc(N2CCN3C[C@H](OCc4ccccn4)C[C@H]3C2)nc1
Pks13 thioesterase: -24.19
PfKRS1: 4.082
LiHisRS: 17.24
MtTrpRS: -2.697

Compound: CCn1nnc(NCc2cc(Br)cc(Br)c2OC)n1
Pks13 thioesterase: 10.03
PfKRS1: -1.3
LiHisRS: 0
MtTrpRS: 4.896

Compound: CN1CCCN(Cc2nc(Cc3ccccc3)n[nH]2)CC1
Pks13 thioesterase: -29.41
PfKRS1: 0.8131
LiHisRS: 24.18
MtTrpRS: 1.06

Compound: CCC(CNS(C)(=O)=O)Oc1ccccc1F (stereo not given)
Pks13 thioesterase: -19.98
PfKRS1: 4.531
LiHisRS: 0
MtTrpRS: -0.09551

Compound: CN(C)C(=O)c1cccnc1-c1ccc2c(c1)OCO2
Pks13 thioesterase: -21.07
PfKRS1: 3.034
LiHisRS: 3.333
MtTrpRS: -3.141

Compound: Cn1ccnc1C(=O)N[C@@H]1CN(CC2CCOCC2)[C@@H]2CCCO[C@@H]21
Pks13 thioesterase: -3.179
PfKRS1: 6.52
LiHisRS: 9.91

Compound: CN1CCc2nc3c(c(N)c2C1)CCCN3C
Pks13 thioesterase: -2.353
PfKRS1: -1.143
LiHisRS: 14.29
MtTrpRS: 6.335

Compound: CCN(CC)C(=O)N1CCN(C(=O)C2CCCc3[nH]ncc32)CC1 (stereo not given)
Pks13 thioesterase: -22.33
PfKRS1: 0.4684
LiHisRS: 6.061
MtTrpRS: -3.047

Compound: O=C(c1csnn1)N1CCc2[nH]nc(COc3cccc(Cl)c3)c2C1
Pks13 thioesterase: -49.22
PfKRS1: -2.243
LiHisRS: 5.263
MtTrpRS: -3.015

Compound: Nc1cc(-c2c[nH]nc2C2CCCN2CCCc2ccccc2)ccn1 (stereo not given)
Pks13 thioesterase: -5.812
PfKRS1: 1.552
LiHisRS: 17.27
MtTrpRS: 1.042

Compound: Cn1c(C2CC2)nc2c1CCN(CCS(=O)(=O)c1ccccc1)C2
Pks13 thioesterase: -6.701
PfKRS1: 0.3469
LiHisRS: 6.757
MtTrpRS: -1.098

Compound: O=C(O)C1CCCN(C(=O)CCn2ccc3c(Cl)cccc32)C1 (stereo not given)
Pks13 thioesterase: 7.684
PfKRS1: 5.779
LiHisRS: 15.79
MtTrpRS: 0.8862

Compound: Cc1cc2nc(C3CCCCC3)c(-c3ccnc(NCCO)n3)cn2n1
Pks13 thioesterase: 4.277
PfKRS1: 3.662
LiHisRS: 5.714

Compound: CC[C@@]1(O)CCN(C(=O)c2ccc(-c3ccco3)cc2)C[C@H]1O
Pks13 thioesterase: 3.982
PfKRS1: 3.867
LiHisRS: 17.74
MtTrpRS: 0.1347

Compound: Cc1cc(C)n(CC2CCCN2C(=O)Cc2c(C)noc2C)n1 (stereo not given)
Pks13 thioesterase: -4.533
PfKRS1: 0.1686
LiHisRS: 23.81
MtTrpRS: -1.174

Compound: COc1ccc(CN2CCOC[C@H](OCc3ccccc3)C2)cc1
Pks13 thioesterase: -29.97
PfKRS1: 7.529
LiHisRS: 27.03
MtTrpRS: -3.585

Compound: CCc1cnc(C)nc1N1CCN(Cc2ccc(-c3cc[nH]n3)o2)CC1
Pks13 thioesterase: 12.42
PfKRS1: -1.29
LiHisRS: 8.333
MtTrpRS: 19.1

Compound: CC(=O)N1CCN(Cc2ccco2)CC2(CC(=O)N(C)C2)C1 (stereo not given)
Pks13 thioesterase: -31.15
PfKRS1: 2.93
LiHisRS: 15.6
MtTrpRS: 2.322

Compound: Cc1noc(C)c1CCC(=O)N1CCN(CCn2cncn2)CC1
Pks13 thioesterase: -2.198
PfKRS1: 5.476
LiHisRS: 18.27
MtTrpRS: -1.327

Compound: c1csc(-c2nc(CNCCn3cccn3)cs2)c1
Pks13 thioesterase: -10.22
PfKRS1: -1.081
LiHisRS: 10.91
MtTrpRS: -41.15

Compound: CC1CN(C(=O)CN(Cc2ccco2)Cc2cccs2)CCO1 (stereo not given)
Pks13 thioesterase: -12.05
PfKRS1: -0.9076
LiHisRS: 20.35
MtTrpRS: -3.26

Compound: CCN(CC)C(=O)CCNC(=O)c1ccccc1N1CCOCC1
Pks13 thioesterase: -20.79
PfKRS1: 0.6346
LiHisRS: -32.26
MtTrpRS: -0.5387

Compound: CC1(c2cc[nH]n2)CCN(C(=O)c2ccc(Cl)cc2)CC1
Pks13 thioesterase: 8.746
PfKRS1: 2.09
LiHisRS: 8.511
MtTrpRS: -5.699

Compound: CN1CCN(Cc2cnc(S(=O)(=O)CC3CC3)n2CC2CCCO2)CC1 (stereo not given)
Pks13 thioesterase: -20.64
PfKRS1: -3.279
LiHisRS: 9.091
MtTrpRS: 2.862

Compound: COc1ccc2c(c1)CCCN2C(=O)CN1CCOC(C)C1 (stereo not given)
Pks13 thioesterase: -8.252
PfKRS1: 1.081
LiHisRS: 10.96
MtTrpRS: -7.286

Once more, the final 3:

Compound,Pks13 thioesterase,PfKRS1,LiHisRS,MtTrpRS
CC1(c2cc[nH]n2)CCN(C(=O)c2ccc(Cl)cc2)CC1,8.746,2.09,8.511,-5.699
CN1CCN(Cc2cnc(S(=O)(=O)CC3CC3)n2CC2CCCO2)CC1 (stereo not given),-20.64,-3.279,9.091,2.862
COc1ccc2c(c1)CCCN2C(=O)CN1CCOC(C)C1 (stereo not given),-8.252,1.081,10.96,-7.286